Results are given in words; binding and its absence hold for the method and conditions named. Some results given as binding are weak or reduced against the parent protein; the word gives no strength.
Target: TAP-Raf-1 (Protein A and Flag-tagged Raf-1) (UniProt P04049)
Experiment: pull-down; TAP-Raf-1 from serum-starved H19-7 cell lysate held on IgG sepharose beads, washed; incubated with RKIP (5 µg) for 30 min at 4°C in 10 mM HEPES pH 7.4, 3 mM MgCl2, 10 mM KCl, 150 mM NaCl, with increasing concentrations of locostatin or DHPE; bound RKIP detected by anti-RKIP immunoblot; both …

binding: binds
B1: Raf Kinase Inhibitory Protein (protein, UniProt P31044 1-187)
chain: MAADISQWAGPLSLQEVDEPPQHALRVDYGGVTVDELGKVLTPTQVMNRPSSISWDGLDPGKLYTLVLTDPDAPSRKDPKFREWHHFLVVNMKGNDISSGTVLSEYVGSGPPKDTGLHRYVWLVYEQEQPLNCDEPILSNKSGDNRGKFKVESFRKKYHLGAPVAGTCFQAEWDDSVPKLHDQLAGK

— publication PMC2696091
